Measurements as given in publication PMC5228031, “CDK4/6-dependent activation of DUB3 regulates cancer metastasis through SNAIL1” (Nature Communications, 2017).
Results are given in words; binding and its absence hold for the method and conditions named. In cells and extracts the contact can be indirect. Some entries that bind do so weakly or less than the wild type.

By UniProt entry, the sequences of proteins in these tests, tags left out.
UniProt O95863: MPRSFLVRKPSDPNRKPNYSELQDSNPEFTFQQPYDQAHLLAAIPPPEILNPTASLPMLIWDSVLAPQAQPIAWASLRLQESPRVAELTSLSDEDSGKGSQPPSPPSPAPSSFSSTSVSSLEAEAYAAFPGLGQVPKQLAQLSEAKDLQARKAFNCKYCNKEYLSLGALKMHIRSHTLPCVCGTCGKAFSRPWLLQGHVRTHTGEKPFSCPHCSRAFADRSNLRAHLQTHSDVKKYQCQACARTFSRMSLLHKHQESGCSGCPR
UniProt Q00534: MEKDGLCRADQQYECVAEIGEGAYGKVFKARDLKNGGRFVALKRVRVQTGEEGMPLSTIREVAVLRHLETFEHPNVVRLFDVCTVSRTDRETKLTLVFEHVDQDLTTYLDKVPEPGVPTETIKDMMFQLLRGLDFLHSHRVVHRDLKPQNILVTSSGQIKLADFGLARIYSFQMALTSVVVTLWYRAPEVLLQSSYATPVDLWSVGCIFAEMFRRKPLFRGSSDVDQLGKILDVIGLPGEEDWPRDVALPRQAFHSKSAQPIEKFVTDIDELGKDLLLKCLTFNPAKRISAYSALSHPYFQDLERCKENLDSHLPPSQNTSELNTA

T1: deubiquitinating enzyme 3 (DUB3), endogenous (human (endogenous in MDA-MB-231 and BT-549)) (UniProt Q6R6M4)
T1 sequence: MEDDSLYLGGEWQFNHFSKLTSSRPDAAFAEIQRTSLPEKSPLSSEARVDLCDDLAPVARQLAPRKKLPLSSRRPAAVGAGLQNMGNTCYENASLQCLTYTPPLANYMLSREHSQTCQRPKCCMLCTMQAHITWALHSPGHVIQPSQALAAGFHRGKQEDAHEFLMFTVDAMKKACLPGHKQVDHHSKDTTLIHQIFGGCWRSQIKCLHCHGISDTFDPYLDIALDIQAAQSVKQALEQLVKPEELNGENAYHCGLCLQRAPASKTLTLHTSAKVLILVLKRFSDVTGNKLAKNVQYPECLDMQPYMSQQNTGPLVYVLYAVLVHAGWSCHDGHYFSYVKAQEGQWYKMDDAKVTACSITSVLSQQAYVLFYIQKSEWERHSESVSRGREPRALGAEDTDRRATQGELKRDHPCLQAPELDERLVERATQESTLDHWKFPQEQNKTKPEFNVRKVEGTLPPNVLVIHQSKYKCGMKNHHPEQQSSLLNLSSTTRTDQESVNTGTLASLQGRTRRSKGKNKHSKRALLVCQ


Key:
[1] = biological target: T1, deubiquitinating enzyme 3 (DUB3), endogenous (human (endogenous in MDA-MB-231 and BT-549)); experiment: co-IP; endogenous proteins; cell lysates (MDA-MB-231; BT-549 too for SNAIL1-DUB3) immunoprecipitated with control IgG, anti-SNAIL1 or anti-DUB3 antibodies, immunoprecipitates blotted
[2] = biological target: SNAIL1 (endogenous) (human (endogenous in MDA-MB-231 and BT-549)) (UniProt O95863); experiment: as above

Row | binding [1] | binding [2] | Molecule
1 | binds | – | SNAIL1 (endogenous) (from UniProt O95863 1-264)
2 | binds | – | CDK6 (endogenous) (from UniProt Q00534 1-326) (enzyme)
3 | – | binds | deubiquitinating enzyme 3 (DUB3), endogenous (enzyme, UniProt Q6R6M4 1-530) MEDDSLYLGGEWQFNHFSKLTSSRPDAAFAEIQRTSLPEKSPLSSEARVDLCDDLAPVARQLAPRKKLPLSSRRPAAVGAGLQNMGNTCYENASLQCLTYTPPLANYMLSREHSQTCQRPKCCMLCTMQAHITWALHSPGHVIQPSQALAAGFHRGKQEDAHEFLMFTVDAMKKACLPGHKQVDHHSKDTTLIHQIFGGCWRSQIKCLHCHGISDTFDPYLDIALDIQAAQSVKQALEQLVKPEELNGENAYHCGLCLQRAPASKTLTLHTSAKVLILVLKRFSDVTGNKLAKNVQYPECLDMQPYMSQQNTGPLVYVLYAVLVHAGWSCHDGHYFSYVKAQEGQWYKMDDAKVTACSITSVLSQQAYVLFYIQKSEWERHSESVSRGREPRALGAEDTDRRATQGELKRDHPCLQAPELDERLVERATQESTLDHWKFPQEQNKTKPEFNVRKVEGTLPPNVLVIHQSKYKCGMKNHHPEQQSSLLNLSSTTRTDQESVNTGTLASLQGRTRRSKGKNKHSKRALLVCQ
